Values from PubChem BioAssay AID1224828 (NIAID, 2016).
Here is an unselected part of about 17,000 reagents tested. In the full data, 762 (4.5%) were called active. 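Active calls include both raised and lowered p65 entry, mostly lowered; wells with fewer than 50 cells lack a z-score.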 Raw values vary from plate to plate and are shown uncorrected. Entries without a mark were called inactive.

Test: 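Find genes required for NF-kappaB p65 moving into the nucleus after LPS in mouse macrophages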 (primary screen)
Cell system: mouse RAW264.7 G9 macrophage reporter cells (GFP-p65, Tnf promoter-mCherry)
Reagents: siRNA pool against mouse genes, 100 nM
Time to read-out: 2 days siRNA transfection, then 40 min LPS before fixation
Challenge: LPS (Salmonella minnesota R595) at 10 ng/ml
Measurement: 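Microscopy ratio of nuclear to perinuclear-ring GFP-p65 signal, scaled to the plate median; gene score is the average of two replicate robust z-scores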
Direction: p65 translocation robust z-score: higher = more nuclear NF-kappaB p65 after LPS than the plate median; nuclear/cytoplasmic p65 ratio: higher = more nuclear NF-kappaB p65
Hit rule: 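Called active when z exceeds 3.3 or falls under -1.56 (median of Tlr4 controls), giving activity score of at least 50; no calls for control wells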
Calls: active = hit (p65 shift raised or lowered); inactive = no clear change

| gene symbol | p65 translocation robust z-score | nuclear/cytoplasmic p65 ratio, rep 1 | nuclear/cytoplasmic p65 ratio, rep 2 | low cell count flag |
| --- | --- | --- | --- | --- |
| Clk2 | – | 1.56 | 1.29 | fewer than 50 cells per well; well left out of scoring |
| Mt3 | -0.25 | 1.43 | 1.29 | enough cells to score |
| Tmem183a | -0.77 | 1.4 | 1.38 | enough cells to score |
| Fbh1 | 1.18 | 1.78 | 1.61 | enough cells to score |
| Uox | – | 1.18 | 1.12 | fewer than 50 cells per well; well left out of scoring |
| Trim31 | -0.53 | 1.47 | 1.79 | enough cells to score |
| Tas2r126 | -0.29 | 1.47 | 1.55 | enough cells to score |
| Magea8 | 0.66 | 1.81 | 1.65 | enough cells to score |
| Slc16a9 | -0.3 | 1.37 | 1.21 | enough cells to score |
| Il9 | 0.48 | 1.59 | 1.39 | enough cells to score |
| Usp13 | 0.9 | 1.78 | 1.71 | enough cells to score |
| Trpc3 | 0.03 | 1.51 | 1.51 | enough cells to score |
| Luc7l3 | -0.44 | 1.57 | 1.52 | enough cells to score |
| Trpc5 | -0.05 | 1.55 | 1.46 | enough cells to score |
| Sele | 0.78 | 1.51 | 1.82 | enough cells to score |
| Lst1 | -0.66 | 1.62 | 1.27 | enough cells to score |
| Tectb | 1.66 | 1.64 | 1.32 | enough cells to score |
| Fen1 | -0.76 | 1.41 | 1.23 | enough cells to score |
| Adamts4 | -0.42 | 1.6 | 1.51 | enough cells to score |
| Ntrk1 | 0.77 | 1.87 | 1.42 | enough cells to score |
| Cmklr1 | 0.87 | 1.63 | 1.55 | enough cells to score |
| B830004H01Rik | -0.51 | 1.49 | 1.77 | enough cells to score |
| Stil | 0.86 | 1.84 | 1.51 | enough cells to score |
| Sec11a | -0.68 | 1.34 | 1.14 | enough cells to score |
| Vmn1r42 | – | 1.36 | 1.28 | fewer than 50 cells per well; well left out of scoring |
| Saa1 | -0.5 | 1.43 | 1.54 | enough cells to score |
| Tmco4 | – | 1.34 | 1.28 | fewer than 50 cells per well; well left out of scoring |
| 4930503E14Rik | 0.66 | 1.39 | 1.38 | enough cells to score |
| Rgn | -0.07 | 1.32 | 1.28 | enough cells to score |
| Spo11 | 1.22 | 1.65 | 1.8 | enough cells to score |
| Ahsa1 | 1.79 | 1.8 | 1.97 | enough cells to score |
| Cntf | -1.9 (active) | 1.24 | 1.14 | enough cells to score |
| Or56a3b | -0.29 | 1.37 | 1.26 | enough cells to score |
| Syn1 | 2.1 | 1.72 | 2 | enough cells to score |
| Btla | 1.68 | 1.62 | 1.8 | enough cells to score |
| Stat6 | 0.18 | 1.52 | 1.64 | enough cells to score |
| Blvrb | -0.02 | 1.64 | 1.58 | enough cells to score |
| Frmd4b | 0.2 | 1.42 | 1.46 | enough cells to score |
| Klre1 | -1.04 | 1.43 | 1.27 | enough cells to score |
| Unc13b | 0.15 | 1.53 | 1.53 | enough cells to score |

Part of the list above, reformatted:
{"gene symbol":"Tmem183a","p65 translocation robust z-score":-0.77,"nuclear/cytoplasmic p65 ratio, rep 1":1.4,"nuclear/cytoplasmic p65 ratio, rep 2":1.38,"low cell count flag":"enough cells to score"}
{"gene symbol":"Fbh1","p65 translocation robust z-score":1.18,"nuclear/cytoplasmic p65 ratio, rep 1":1.78,"nuclear/cytoplasmic p65 ratio, rep 2":1.61,"low cell count flag":"enough cells to score"}
{"gene symbol":"Uox","nuclear/cytoplasmic p65 ratio, rep 1":1.18,"nuclear/cytoplasmic p65 ratio, rep 2":1.12,"low cell count flag":"fewer than 50 cells per well; well left out of scoring"}
{"gene symbol":"Trim31","p65 translocation robust z-score":-0.53,"nuclear/cytoplasmic p65 ratio, rep 1":1.47,"nuclear/cytoplasmic p65 ratio, rep 2":1.79,"low cell count flag":"enough cells to score"}
{"gene symbol":"Tas2r126","p65 translocation robust z-score":-0.29,"nuclear/cytoplasmic p65 ratio, rep 1":1.47,"nuclear/cytoplasmic p65 ratio, rep 2":1.55,"low cell count flag":"enough cells to score"}
{"gene symbol":"Magea8","p65 translocation robust z-score":0.66,"nuclear/cytoplasmic p65 ratio, rep 1":1.81,"nuclear/cytoplasmic p65 ratio, rep 2":1.65,"low cell count flag":"enough cells to score"}
